Measurements reported in publication PMC7072583 (Biomolecules, 2020).

Assay: peptide made by a vendor
Conditions: whole synthesis, reversed phase analytical HPLC

FITC-(Acp)-KARKKKLNKKGRKMAGRKRGRPKK (N-terminal FITC-Acp)
final HPLC purity: >99% purity
